Results taken from paper PMC6710443.
Results are given in words; binding and its absence hold for the method and conditions named. In cells and extracts the contact can be indirect. Some results given as binding are weak or reduced against the parent protein; the word gives no strength. Where a sequence is shown, tags or fusion partners need not be part of it.

Protein sequences, listed by entry. Tags and fused reporters are not part of them.
UniProt Q7TQN4: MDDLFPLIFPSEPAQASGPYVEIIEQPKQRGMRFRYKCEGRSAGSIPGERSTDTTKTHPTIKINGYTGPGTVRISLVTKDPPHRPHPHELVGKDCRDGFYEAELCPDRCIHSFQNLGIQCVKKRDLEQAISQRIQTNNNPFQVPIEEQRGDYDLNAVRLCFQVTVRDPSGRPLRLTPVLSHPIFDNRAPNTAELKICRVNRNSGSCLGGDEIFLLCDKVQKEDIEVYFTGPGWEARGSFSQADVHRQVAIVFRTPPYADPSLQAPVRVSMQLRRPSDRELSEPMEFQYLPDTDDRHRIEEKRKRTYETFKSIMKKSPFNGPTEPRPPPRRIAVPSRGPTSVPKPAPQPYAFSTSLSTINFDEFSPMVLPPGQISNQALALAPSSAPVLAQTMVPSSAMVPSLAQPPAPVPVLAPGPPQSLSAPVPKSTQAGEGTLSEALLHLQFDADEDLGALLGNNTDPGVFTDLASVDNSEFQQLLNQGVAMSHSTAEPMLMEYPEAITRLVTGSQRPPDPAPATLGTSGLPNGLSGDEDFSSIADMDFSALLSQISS

Target: Nuclear factor-kappaB p65 (rat (endogenous in primary rat chondrocytes)) (UniProt Q7TQN4)
Assay: co-IP; 500 ug chondrocyte lysate (IP RIPA with protease inhibitor cocktail) incubated with anti-NF-kappaB p65 antibody and protein A/G PLUS-Agarose beads at 4°C overnight; beads washed three times with lysis buffer; SDS-PAGE

binding: binds
B1: Histone deacetylase 3 (protein, UniProt Q6P6W3 1-428)
chain: MAKTVAYFYDPDVGNFHYGAGHPMKPHRLALTHSLVLHYGLYKKMIVFKPYQASQHDMCRFHSEDYIDFLQRVSPTNMQGFTKSLNAFNVGDDCPVFPGLFEFCSRYTGASLQGATQLNNKICDIAINWAGGLHHAKKFEASGFCYVNDIVIGILELLKYHPRVLYIDIDIHHGDGVQEAFYLTDRVMTVSFHKYGNYFFPGTGDMYEVGAESGRYYCLNVPLRDGIDDQSYKHLFQPVISQVVDFYQPTCIVLQCGADSLGCDRLGCFNLSIRGHGECVEYVKSFNIPLLVLGGGGYTVRNVARCWTYETSLLVEEAISEELPYSEYFEYFAPDFTLHPDVSTRIENQNSRQYLDQIRQTIFENLKMLNHAPSVQIHDVPADLLTYDRTDEADAEERGPEENYSRPEAPNEFYDGDHDNDKESDVEI
